Results: patent publication EP2842965A1, “Neuromedin U analogs comprising serum albumin binding amino acid residue” (Gubra ApS, priority 2013, dated 2015)
At least one peptide structure holds a part that was inferred or is arguable (an end, a ring closure or a residue). Starred links: 1 amine or outer side, 2 acyl side, 3 side chain; linkers in the order of their positions; H or OH if unused. Residues, ends and D or L forms follow the SMILES beside them. Groups on a side chain read outwards from the residue. *: point of attachment. γGlu = O=C(O)[C@H](CCC(=O)[*:2])N[*:1]; Palmitoyl = CCCCCCCCCCCCCCCC(=O)*

Assay: In vivo acute/dose response study of food intake in the HM2 system after SC dosing
Conditions: 6 hours post dosing, male NMRI mice
Method: Animals: A total of seventy two (72) male NMRI mice 6-7 weeks old (approx. 25 g BW) at the time of arrival were obtained from Taconic (Denmark) and transferred to the Gubra test stables. Upon arrival the animals will be transferred into the HM2 cages and housed in groups of four. The animal room environment were controlled (targeted ranges: temperature 22 ± 2°C; relative humidity 50 ± 10%; light/dark cycle: 12 hours light, 12 hours dark, lights on from 6 AM to 6 PM. […] have ad libitum access to Altromin (Brogaarden, Denmark) and tap water.
Run-in period: Mice arrived at day -7. A minimum of 5-7 days of habituation to the system was allowed before study start. During these days, animals were handled daily to accustom them to the experimental paradigm.
Runs in the HM2 system: In total five runs were performed in the HM2 system. There were at least 4 days of washout between each run.
Acute effect of lipidated analogues: Mice were re-randomized and the acute effects of the lipidated compounds were tested in an acute setting. Mice were dosed in doses equimolar to the concentration of NMU found to be semi-efficacious.
Dose response study: Different doses of the analogues were tested in order to establish a dose response relationship. Mice were re-randomized and four different doses of the five lipidated analogues were tested over two different runs in the HM2 system and compared with NMU at […] and liraglutide at 0.05 µmol/kg. […]

| Compound | Percent food intake reduction 6 hours post SC dosing (0.03 µmol/kg) | Percent food intake reduction 6 hours post SC dosing (0.1 µmol/kg) | Percent food intake reduction 6 hours post SC dosing (0.3 µmol/kg) | Percent food intake reduction 6 hours post SC dosing (1.0 µmol/kg) |
| --- | --- | --- | --- | --- |
| CCCCCCCCCCCCCCCC(=O)N[C@@H](CCC(=O)NCCCC[C@H](NC(=O)[C@H](CCC(N)=O)NC(=O)[C@H](Cc1ccccc1)NC(=O)[C@H](CCC(=O)O)NC(=O)[C@H](CCC(=O)O)NC(=O)[C@H](CC(=O)O)NC(=O)[C@@H](NC(=O)[C@H](CCCNC(=N)N)NC(=O)[C@@H](N)Cc1ccccc1)C(C)C)C(=O)N1CCC[C@H]1C(=O)N[C@@H](Cc1ccccc1)C(=O)N[C@@H](C)C(=O)N[C@@H](CO)C(=O)N[C@@H](CCC(N)=O)C(=O)N[C@@H](CO)C(=O)N[C@@H](CCCNC(=N)N)C(=O)NCC(=O)N[C@@H](Cc1ccc(O)cc1)C(=O)N[C@@H](Cc1ccccc1)C(=O)N[C@@H](CC(C)C)C(=O)N[C@@H](Cc1ccccc1)C(=O)N[C@@H](CCCNC(=N)N)C(=O)N1CCC[C@H]1C(=O)N[C@@H](CCCNC(=N)N)C(=O)N[C@@H](CC(N)=O)C(N)=O)C(=O)O [SEQ ID NO 11] (H-FRVDEEFQK([γGlu-Palmitoyl])PFASQSRGYFLFRPRN-NH2) | 46% | 56% | 78% | 85% |
| H-FRVDEEFQSPFASQSRGYFLFRPRN-NH2 [Human NMU, reference compound] |  |  |  | 25% |
